According to PMC8363638:
No constants are given. Whether binding was seen depends on the method and setting. Binding seen in cells or lysates may run through a third protein. Binding calls can cover weak binding; strength is not graded here.

The chains behind the UniProt entries cited, without tags or fusion partners. Where a name states a change or a piece, a line headed by the entry shows the natural chain unless it says otherwise.
UniProt Q96I25: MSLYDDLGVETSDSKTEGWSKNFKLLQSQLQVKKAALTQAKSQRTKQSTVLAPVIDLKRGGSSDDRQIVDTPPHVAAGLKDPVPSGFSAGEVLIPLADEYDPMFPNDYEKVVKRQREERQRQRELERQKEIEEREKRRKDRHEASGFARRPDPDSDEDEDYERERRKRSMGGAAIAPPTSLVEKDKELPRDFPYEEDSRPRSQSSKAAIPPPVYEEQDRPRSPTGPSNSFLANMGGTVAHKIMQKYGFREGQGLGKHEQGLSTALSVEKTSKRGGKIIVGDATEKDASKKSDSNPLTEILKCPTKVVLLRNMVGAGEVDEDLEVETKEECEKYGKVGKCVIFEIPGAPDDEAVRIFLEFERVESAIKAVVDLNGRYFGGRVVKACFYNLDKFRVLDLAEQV
UniProt O75533: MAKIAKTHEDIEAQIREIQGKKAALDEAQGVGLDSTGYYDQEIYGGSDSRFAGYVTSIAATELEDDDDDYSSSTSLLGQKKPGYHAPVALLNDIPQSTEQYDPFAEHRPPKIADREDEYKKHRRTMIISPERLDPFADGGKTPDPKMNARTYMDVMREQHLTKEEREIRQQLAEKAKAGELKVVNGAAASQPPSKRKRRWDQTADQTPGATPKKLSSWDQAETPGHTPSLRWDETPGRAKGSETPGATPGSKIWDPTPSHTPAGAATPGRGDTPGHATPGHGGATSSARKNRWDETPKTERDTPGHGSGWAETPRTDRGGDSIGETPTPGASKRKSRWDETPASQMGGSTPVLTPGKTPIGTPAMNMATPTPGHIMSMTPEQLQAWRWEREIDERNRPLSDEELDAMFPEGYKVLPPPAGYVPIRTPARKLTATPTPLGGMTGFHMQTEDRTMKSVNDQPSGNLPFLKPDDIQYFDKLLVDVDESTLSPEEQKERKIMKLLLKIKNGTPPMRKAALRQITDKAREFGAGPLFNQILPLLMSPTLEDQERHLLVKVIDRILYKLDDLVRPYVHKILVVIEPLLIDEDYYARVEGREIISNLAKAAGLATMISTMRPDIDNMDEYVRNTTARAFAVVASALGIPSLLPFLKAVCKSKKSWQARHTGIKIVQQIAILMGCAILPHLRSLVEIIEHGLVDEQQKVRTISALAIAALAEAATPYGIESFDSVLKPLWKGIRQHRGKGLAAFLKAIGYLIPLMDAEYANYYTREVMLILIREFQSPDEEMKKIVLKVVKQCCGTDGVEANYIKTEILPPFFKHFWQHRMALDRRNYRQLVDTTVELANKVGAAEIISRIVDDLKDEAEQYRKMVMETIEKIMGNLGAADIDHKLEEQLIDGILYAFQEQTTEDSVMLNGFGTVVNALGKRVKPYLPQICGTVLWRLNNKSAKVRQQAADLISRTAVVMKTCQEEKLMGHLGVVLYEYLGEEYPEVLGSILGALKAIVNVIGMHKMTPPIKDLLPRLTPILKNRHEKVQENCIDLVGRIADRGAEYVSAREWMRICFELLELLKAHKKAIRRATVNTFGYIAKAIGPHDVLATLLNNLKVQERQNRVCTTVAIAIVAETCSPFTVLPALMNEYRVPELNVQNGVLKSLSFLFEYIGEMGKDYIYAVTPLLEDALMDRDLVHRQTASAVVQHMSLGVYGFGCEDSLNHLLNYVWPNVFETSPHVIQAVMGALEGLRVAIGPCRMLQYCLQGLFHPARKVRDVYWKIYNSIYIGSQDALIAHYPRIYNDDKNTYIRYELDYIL

Molecular target: GST-SPF45/∆G (human) (UniProt Q96I25)
Experiment: pull-down; GST fusion protein (5 µg) incubated at 30 °C for 15 min in 100 µL with 30% HeLa cell nuclear extract; RNase A treatment; NET2 buffer [50 mM Tris (pH 7.5), 150 mM NaCl, 0.05% Nonidet P-40]; Glutathione Sepharose 4B, 4 °C for 3 h; six washes; Western blotting; only the target purified

binding: binds
Substance: SF3b155 (from UniProt O75533 1-1304)
